The supplement of paper PMC7666118
The list shows a part of the results.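 Rule for the calls: active = dose-dependent thermal stabilisation significant by F-test of dose-response against flat model at 10% FDR; inactive = not significant.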

Amino acid sequences for entries named in this document (tags omitted). A change or cut given only in a name is not applied to a line headed by its entry.
UniProt Q92615, whole entry: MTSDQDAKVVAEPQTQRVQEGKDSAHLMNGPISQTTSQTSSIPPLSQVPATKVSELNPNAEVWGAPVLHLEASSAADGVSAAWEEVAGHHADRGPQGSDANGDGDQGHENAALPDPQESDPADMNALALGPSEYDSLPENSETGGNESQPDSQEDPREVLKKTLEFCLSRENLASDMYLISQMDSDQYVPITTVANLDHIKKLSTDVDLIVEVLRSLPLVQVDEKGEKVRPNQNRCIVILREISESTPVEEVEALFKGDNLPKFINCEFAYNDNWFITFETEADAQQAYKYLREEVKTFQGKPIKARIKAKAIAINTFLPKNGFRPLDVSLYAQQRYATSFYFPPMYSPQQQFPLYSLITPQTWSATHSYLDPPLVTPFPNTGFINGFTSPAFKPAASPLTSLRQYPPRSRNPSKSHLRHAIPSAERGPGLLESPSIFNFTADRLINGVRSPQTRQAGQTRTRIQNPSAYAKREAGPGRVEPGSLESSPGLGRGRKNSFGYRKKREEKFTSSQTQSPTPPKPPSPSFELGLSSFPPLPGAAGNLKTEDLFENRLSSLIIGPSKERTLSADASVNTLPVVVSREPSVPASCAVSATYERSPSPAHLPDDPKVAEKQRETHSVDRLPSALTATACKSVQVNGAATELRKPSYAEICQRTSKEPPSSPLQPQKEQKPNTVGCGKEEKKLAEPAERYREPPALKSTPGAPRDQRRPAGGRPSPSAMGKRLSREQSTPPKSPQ
UniProt P05161, whole entry: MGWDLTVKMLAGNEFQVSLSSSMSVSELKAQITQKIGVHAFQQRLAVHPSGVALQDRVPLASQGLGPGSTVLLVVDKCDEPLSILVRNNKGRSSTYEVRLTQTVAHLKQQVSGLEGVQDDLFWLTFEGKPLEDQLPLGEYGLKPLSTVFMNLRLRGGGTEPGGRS
UniProt P14735, whole entry: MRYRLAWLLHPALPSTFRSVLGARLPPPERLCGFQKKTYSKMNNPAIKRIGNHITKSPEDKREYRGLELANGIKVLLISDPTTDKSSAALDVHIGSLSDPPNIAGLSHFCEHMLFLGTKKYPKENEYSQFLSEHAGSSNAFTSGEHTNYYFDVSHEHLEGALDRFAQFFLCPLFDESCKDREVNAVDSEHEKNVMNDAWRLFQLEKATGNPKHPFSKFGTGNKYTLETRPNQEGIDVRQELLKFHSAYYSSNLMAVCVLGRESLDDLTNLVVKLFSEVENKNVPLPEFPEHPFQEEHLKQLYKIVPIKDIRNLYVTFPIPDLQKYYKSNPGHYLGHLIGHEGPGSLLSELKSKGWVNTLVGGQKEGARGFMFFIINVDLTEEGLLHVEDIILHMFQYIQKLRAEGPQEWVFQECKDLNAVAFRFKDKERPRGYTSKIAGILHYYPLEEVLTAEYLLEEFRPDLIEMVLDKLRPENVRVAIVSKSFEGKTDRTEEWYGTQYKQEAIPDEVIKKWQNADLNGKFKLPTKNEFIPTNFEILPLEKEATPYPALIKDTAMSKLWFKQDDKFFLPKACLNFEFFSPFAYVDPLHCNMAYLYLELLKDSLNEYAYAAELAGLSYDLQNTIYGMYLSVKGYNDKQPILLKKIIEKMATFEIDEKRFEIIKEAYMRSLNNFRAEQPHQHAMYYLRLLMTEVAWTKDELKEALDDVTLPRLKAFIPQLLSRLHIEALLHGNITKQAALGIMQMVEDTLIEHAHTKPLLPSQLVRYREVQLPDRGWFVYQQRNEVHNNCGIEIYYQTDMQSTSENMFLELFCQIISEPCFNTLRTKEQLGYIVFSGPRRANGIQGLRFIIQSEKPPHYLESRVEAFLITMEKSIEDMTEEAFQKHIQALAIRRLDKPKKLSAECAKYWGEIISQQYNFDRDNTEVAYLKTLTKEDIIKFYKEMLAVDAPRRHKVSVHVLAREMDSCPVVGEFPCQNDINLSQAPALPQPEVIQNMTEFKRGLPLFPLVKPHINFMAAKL
UniProt Q13907: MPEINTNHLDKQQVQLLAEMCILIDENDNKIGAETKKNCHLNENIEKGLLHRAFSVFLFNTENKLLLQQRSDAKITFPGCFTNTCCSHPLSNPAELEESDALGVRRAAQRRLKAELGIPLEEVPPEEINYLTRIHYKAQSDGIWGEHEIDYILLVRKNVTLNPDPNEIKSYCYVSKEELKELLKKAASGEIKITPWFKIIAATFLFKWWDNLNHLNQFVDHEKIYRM
UniProt Q9P0J7: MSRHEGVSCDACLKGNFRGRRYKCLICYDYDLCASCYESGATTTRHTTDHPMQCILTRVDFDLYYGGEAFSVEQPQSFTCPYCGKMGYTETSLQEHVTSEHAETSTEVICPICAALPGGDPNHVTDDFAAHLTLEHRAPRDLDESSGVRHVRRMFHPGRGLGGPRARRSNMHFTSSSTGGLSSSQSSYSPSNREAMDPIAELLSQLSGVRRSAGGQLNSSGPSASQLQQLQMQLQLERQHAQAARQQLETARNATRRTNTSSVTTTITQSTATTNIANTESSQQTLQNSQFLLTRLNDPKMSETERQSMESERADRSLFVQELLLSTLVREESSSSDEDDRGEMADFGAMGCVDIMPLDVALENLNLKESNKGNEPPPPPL
UniProt P19823: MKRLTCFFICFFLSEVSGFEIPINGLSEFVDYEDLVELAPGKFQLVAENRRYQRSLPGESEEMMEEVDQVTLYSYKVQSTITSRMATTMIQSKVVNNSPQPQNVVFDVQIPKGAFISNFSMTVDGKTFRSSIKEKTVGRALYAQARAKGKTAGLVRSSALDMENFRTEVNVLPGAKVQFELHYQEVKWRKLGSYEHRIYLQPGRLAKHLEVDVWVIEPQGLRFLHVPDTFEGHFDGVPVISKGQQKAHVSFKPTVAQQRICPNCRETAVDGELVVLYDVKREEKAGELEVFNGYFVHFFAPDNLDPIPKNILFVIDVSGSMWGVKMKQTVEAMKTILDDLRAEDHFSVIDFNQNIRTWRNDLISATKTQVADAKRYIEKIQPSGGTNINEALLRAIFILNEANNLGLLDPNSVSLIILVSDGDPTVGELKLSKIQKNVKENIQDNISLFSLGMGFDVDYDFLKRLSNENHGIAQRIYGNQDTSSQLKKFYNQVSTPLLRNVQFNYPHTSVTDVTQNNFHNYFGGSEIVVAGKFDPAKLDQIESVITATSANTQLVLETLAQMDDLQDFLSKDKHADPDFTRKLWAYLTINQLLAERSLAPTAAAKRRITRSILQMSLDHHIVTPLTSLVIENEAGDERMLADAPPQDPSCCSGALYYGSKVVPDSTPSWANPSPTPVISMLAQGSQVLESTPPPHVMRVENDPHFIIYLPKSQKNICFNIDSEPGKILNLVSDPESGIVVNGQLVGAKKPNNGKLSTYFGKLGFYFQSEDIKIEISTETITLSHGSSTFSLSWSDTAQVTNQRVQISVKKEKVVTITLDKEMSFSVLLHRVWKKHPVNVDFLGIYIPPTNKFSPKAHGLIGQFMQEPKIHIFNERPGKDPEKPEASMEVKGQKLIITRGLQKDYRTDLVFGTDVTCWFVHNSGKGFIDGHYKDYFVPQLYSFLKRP
UniProt P11279: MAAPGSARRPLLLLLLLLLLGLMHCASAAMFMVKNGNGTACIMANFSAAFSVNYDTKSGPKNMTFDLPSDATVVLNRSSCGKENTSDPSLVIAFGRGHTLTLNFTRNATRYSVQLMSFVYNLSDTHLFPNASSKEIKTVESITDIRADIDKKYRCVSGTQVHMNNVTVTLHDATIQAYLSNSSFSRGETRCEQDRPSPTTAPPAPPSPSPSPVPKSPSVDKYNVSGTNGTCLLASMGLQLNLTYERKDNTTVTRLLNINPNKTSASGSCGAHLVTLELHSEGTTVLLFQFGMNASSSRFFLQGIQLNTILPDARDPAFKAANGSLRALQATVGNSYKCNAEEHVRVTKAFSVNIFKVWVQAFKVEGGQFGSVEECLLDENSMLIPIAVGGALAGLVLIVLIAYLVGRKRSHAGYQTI
UniProt P41134: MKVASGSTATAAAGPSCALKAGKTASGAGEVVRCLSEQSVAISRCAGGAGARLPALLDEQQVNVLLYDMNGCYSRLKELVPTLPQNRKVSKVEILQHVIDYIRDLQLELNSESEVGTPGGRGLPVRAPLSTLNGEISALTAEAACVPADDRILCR
UniProt O15397, whole entry: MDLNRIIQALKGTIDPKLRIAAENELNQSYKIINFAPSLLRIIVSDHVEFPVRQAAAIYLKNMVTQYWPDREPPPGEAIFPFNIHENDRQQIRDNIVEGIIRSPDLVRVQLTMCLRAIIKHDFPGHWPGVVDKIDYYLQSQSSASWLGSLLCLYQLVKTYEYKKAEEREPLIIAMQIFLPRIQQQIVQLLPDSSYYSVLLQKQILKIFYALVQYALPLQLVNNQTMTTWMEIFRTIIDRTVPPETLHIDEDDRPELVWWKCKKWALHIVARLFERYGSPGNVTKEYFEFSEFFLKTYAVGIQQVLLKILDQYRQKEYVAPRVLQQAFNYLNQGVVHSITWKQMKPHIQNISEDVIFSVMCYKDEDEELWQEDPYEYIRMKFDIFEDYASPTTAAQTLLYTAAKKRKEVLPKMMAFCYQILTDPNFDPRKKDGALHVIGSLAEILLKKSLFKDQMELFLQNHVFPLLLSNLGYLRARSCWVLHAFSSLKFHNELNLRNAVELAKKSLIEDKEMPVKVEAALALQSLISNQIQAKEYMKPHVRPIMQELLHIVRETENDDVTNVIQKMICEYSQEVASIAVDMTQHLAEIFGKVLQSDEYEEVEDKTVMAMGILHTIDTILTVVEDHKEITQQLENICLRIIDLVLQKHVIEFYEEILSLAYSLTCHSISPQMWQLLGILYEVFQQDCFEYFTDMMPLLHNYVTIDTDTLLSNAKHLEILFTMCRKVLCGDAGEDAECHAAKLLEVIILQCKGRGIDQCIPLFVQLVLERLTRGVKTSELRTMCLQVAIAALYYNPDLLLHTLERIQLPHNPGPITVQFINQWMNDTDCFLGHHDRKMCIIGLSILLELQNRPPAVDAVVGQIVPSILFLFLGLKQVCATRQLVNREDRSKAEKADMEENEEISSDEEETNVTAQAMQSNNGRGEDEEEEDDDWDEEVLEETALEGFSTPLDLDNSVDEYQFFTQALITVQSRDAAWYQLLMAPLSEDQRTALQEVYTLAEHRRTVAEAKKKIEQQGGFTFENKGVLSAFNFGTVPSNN
UniProt Q9C0E8: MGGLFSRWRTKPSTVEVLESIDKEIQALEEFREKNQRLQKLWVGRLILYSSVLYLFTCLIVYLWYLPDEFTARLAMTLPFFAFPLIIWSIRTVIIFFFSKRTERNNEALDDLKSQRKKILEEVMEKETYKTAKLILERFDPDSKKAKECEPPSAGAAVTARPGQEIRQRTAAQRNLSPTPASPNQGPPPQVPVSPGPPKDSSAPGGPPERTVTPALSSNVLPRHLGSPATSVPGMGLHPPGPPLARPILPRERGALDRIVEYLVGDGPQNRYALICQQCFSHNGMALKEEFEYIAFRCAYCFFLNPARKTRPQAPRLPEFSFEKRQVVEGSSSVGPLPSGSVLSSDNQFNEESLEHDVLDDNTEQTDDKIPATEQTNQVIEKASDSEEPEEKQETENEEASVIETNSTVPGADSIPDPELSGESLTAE
UniProt Q9Y2L9: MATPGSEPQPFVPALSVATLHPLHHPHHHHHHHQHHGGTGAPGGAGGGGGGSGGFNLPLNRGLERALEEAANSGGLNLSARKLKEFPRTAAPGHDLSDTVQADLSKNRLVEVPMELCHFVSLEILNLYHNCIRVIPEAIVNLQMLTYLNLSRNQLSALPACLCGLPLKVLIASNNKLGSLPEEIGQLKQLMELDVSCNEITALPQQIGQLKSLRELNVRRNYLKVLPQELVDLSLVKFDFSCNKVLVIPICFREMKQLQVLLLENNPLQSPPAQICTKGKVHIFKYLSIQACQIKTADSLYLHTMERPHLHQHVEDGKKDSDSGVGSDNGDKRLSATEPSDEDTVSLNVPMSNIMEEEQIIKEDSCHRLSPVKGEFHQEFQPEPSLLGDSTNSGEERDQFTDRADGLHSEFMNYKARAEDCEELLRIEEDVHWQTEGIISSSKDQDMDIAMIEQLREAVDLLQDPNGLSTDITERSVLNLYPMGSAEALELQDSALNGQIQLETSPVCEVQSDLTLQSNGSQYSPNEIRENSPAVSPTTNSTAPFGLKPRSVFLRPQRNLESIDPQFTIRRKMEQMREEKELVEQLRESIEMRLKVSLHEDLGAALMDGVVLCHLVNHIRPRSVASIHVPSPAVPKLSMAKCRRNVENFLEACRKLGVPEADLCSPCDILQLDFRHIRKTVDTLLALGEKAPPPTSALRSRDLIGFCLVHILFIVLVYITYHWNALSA
UniProt Q5T440: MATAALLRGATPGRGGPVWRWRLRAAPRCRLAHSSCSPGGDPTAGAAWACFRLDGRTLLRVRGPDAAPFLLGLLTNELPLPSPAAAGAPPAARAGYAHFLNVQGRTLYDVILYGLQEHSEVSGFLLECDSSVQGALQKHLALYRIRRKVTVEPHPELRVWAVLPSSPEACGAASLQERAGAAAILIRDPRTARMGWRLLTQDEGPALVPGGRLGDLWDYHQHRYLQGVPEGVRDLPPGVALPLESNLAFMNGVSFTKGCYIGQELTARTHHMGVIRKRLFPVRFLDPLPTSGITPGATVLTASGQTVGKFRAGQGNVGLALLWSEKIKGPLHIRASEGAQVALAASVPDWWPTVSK

compound: Nc1nc2c(ncn2[C@@H]2O[C@H](COP(=O)(O)OP(=O)(O)OP(=O)(O)O)[C@@H](O)[C@H]2O)c(=O)[nH]1; test: dose-dependent thermal stabilisation call (2D-TPP, DLPTP, 10% FDR) (binary (1 = stabilised)); higher = stabilised by the compound; details: system: Jurkat gel-filtered lysate; concentration range 1-500 µM

Row | Target | dose-dependent thermal stabilisation call
1 | HTATSF1 (UniProt O43719) | inactive: 0
2 | KIAA1143 (UniProt Q96AT1) | inactive: 0
3 | IPO5 (UniProt O00410) | inactive: 0
4 | LMNB1 (UniProt P20700) | inactive: 0
5 | LMO7 (UniProt Q8WWI1) | inactive: 0
6 | LARP4B (UniProt Q92615) | inactive: 0
7 | KIF2A (UniProt O00139) | active: 1
8 | ISG15 (UniProt P05161) | inactive: 0
9 | IARS (UniProt P41252) | inactive: 0
10 | LNX2 (UniProt Q8N448) | inactive: 0
11 | HPCAL1 (UniProt P37235) | inactive: 0
12 | IDE (UniProt P14735) | inactive: 0
13 | IDI1 (UniProt Q13907) | inactive: 0
14 | IREB2 (UniProt P48200) | inactive: 0
15 | KDELC1 (UniProt Q6UW63) | inactive: 0
16 | KCMF1 (UniProt Q9P0J7) | inactive: 0
17 | HSPBP1 (UniProt Q9NZL4) | inactive: 0
18 | ITIH2 (UniProt P19823) | inactive: 0

Part of the list above, comma-delimited.
Row,Target,dose-dependent thermal stabilisation call
2,KIAA1143 (UniProt Q96AT1),inactive: 0
4,LMNB1 (UniProt P20700),inactive: 0
5,LMO7 (UniProt Q8WWI1),inactive: 0
6,LARP4B (UniProt Q92615),inactive: 0
7,KIF2A (UniProt O00139),active: 1
10,LNX2 (UniProt Q8N448),inactive: 0
13,IDI1 (UniProt Q13907),inactive: 0
16,KCMF1 (UniProt Q9P0J7),inactive: 0
17,HSPBP1 (UniProt Q9NZL4),inactive: 0
18,ITIH2 (UniProt P19823),inactive: 0

Further results:

Row | Target | dose-dependent thermal stabilisation call
19 | KLF13 (UniProt Q9Y2Y9) | inactive: 0
20 | LETM1 (UniProt O95202) | inactive: 0
21 | IFIT5 (UniProt Q13325) | inactive: 0
22 | KDM1A (UniProt O60341) | inactive: 0
23 | KIDINS220 (UniProt Q9ULH0) | inactive: 0
24 | LAMP1 (UniProt P11279) | inactive: 0
25 | ID1 (UniProt P41134) | inactive: 0
26 | KATNAL1 (UniProt Q9BW62) | inactive: 0
27 | LGALS9 (UniProt O00182) | inactive: 0
28 | KIAA0513 (UniProt O60268) | inactive: 0
29 | LCMT1 (UniProt Q9UIC8) | inactive: 0
30 | IPO8 (UniProt O15397) | inactive: 0
31 | LNP (UniProt Q9C0E8) | inactive: 0
32 | LRCH1 (UniProt Q9Y2L9) | inactive: 0
33 | LDHA (UniProt P00338) | inactive: 0
34 | KPNA6 (UniProt O60684) | active: 1
35 | IPCEF1 (UniProt Q8WWN9) | inactive: 0
36 | IBA57 (UniProt Q5T440) | inactive: 0
